Experimental data published in the supplement of paper PMC12067093, “Discovery and optimisation of a covalent ligand for TRIM25 and its application to targeted protein ubiquitination” (Chemical Science, 2025).
The list shows a part of the results.

By UniProt entry, the sequences of proteins in these tests, tags left out. Where a name states a change or a piece, a line headed by the entry shows the natural chain unless it says otherwise.
UniProt P05455: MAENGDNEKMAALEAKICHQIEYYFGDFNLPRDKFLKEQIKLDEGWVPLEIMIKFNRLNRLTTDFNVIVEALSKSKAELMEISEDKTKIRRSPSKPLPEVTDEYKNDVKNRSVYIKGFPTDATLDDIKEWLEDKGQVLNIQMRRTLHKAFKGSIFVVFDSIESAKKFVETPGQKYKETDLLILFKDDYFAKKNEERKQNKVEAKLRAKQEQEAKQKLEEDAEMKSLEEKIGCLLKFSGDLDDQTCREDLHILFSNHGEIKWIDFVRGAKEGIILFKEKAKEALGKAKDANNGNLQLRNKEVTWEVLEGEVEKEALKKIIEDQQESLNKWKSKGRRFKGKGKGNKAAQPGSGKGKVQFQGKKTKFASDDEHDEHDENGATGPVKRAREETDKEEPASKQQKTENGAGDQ
UniProt Q96DR4, whole entry: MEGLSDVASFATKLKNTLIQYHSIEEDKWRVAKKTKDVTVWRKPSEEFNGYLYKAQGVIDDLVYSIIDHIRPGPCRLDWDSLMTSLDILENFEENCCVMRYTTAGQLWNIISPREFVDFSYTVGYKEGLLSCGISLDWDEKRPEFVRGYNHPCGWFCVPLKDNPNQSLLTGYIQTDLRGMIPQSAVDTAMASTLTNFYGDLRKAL
UniProt Q9Y2Z0: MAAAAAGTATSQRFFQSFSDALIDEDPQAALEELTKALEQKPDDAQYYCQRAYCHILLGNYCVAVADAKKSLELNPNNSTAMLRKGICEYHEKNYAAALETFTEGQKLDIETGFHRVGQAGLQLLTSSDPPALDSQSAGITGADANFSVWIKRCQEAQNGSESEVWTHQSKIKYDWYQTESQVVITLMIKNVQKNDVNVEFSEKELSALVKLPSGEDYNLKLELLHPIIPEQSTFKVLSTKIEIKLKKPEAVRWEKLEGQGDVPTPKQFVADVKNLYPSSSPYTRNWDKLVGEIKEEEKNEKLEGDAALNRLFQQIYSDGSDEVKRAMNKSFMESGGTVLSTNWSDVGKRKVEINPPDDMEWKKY
UniProt O00186: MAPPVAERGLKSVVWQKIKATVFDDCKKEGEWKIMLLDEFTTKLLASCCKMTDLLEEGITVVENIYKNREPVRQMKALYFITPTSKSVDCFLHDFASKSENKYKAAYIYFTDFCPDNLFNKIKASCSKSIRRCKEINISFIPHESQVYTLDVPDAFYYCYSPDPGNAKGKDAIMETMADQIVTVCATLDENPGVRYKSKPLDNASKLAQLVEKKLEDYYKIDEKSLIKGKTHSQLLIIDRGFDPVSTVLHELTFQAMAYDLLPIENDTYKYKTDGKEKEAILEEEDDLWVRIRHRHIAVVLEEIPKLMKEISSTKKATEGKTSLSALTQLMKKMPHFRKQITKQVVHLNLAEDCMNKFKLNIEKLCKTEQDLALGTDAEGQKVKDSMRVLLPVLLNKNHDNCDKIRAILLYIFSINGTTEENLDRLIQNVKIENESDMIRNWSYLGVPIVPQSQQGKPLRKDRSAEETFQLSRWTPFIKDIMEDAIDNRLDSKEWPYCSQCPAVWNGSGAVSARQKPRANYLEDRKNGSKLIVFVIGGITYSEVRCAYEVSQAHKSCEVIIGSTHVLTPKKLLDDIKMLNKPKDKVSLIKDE
UniProt Q8N3U4: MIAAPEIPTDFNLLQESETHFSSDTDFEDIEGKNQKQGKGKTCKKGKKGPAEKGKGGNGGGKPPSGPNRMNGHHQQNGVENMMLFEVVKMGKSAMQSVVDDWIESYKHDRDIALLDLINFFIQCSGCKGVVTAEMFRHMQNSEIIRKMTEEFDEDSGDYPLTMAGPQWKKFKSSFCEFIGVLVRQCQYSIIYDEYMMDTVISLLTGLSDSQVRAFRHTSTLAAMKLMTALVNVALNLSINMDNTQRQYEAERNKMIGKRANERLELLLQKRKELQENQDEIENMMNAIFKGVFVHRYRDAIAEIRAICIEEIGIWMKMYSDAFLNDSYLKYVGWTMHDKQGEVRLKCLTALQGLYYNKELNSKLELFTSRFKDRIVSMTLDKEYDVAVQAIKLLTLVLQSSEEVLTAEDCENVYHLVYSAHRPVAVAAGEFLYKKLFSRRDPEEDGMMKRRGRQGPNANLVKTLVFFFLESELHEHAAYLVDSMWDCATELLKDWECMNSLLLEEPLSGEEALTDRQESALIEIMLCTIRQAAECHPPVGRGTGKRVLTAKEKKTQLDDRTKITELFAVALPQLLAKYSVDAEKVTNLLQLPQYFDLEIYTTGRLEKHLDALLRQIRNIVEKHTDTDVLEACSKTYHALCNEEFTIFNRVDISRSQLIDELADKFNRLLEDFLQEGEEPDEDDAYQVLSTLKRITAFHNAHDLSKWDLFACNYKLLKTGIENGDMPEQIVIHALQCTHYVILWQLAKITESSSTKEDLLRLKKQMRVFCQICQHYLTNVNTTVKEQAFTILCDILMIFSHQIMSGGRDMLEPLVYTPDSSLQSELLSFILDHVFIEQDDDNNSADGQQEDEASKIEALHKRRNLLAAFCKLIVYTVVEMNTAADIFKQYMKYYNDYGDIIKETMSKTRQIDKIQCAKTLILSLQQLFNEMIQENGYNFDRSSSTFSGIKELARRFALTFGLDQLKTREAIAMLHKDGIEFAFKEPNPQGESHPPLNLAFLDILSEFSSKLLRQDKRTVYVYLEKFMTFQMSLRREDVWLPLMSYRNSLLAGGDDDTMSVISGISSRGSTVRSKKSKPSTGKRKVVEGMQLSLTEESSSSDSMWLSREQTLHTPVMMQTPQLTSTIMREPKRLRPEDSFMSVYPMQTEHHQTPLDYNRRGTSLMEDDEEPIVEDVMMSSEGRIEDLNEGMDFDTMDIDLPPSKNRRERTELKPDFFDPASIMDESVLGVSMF
UniProt Q8IYB8: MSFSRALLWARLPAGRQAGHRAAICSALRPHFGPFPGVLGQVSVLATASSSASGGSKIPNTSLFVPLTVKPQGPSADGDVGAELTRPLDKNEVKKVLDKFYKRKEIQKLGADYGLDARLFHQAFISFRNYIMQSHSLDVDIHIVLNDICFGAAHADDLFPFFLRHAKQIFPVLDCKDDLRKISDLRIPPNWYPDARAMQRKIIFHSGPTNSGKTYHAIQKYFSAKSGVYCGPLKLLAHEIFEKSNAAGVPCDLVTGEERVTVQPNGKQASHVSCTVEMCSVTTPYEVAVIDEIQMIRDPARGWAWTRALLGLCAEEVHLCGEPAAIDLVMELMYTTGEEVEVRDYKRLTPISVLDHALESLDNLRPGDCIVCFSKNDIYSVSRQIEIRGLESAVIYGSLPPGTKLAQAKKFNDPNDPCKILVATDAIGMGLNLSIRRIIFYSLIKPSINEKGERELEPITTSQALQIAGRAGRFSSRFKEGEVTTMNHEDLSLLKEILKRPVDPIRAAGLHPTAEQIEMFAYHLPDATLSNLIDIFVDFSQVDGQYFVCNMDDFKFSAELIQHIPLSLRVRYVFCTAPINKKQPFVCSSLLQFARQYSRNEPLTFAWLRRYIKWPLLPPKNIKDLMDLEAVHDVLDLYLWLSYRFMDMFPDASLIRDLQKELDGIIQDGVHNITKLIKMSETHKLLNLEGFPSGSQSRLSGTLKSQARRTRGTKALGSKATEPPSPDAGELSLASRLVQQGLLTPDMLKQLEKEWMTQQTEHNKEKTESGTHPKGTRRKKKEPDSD
UniProt Q8TE77: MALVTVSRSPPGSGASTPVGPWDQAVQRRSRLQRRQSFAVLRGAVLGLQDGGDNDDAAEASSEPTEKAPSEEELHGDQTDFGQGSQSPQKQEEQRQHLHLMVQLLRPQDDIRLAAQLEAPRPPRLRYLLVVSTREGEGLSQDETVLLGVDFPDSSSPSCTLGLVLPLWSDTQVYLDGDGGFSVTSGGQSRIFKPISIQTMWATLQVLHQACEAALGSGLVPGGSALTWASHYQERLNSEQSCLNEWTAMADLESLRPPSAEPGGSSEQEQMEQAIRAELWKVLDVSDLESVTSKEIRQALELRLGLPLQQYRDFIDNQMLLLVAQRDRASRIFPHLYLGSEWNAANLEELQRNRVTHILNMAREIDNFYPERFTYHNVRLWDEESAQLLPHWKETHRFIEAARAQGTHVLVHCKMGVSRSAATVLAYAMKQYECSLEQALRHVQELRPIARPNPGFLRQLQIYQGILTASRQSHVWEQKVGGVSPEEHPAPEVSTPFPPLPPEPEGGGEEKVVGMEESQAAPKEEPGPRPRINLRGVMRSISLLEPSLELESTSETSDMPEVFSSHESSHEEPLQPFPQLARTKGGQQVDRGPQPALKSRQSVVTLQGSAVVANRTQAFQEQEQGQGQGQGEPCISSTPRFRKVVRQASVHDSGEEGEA
UniProt Q16629: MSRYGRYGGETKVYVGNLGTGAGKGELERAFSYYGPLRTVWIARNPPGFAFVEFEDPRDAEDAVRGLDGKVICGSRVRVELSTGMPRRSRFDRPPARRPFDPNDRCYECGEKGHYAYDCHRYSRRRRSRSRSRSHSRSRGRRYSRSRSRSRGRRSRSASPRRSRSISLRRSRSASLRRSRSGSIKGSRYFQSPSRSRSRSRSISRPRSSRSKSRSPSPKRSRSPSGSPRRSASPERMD
UniProt P56962: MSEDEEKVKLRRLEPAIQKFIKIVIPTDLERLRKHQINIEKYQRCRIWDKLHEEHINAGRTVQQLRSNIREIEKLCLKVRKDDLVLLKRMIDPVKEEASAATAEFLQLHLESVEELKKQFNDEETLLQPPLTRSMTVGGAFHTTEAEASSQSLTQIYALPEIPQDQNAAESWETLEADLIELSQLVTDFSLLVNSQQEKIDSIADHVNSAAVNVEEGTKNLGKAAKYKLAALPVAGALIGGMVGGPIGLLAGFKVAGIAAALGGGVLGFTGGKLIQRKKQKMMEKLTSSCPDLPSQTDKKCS
UniProt P50502: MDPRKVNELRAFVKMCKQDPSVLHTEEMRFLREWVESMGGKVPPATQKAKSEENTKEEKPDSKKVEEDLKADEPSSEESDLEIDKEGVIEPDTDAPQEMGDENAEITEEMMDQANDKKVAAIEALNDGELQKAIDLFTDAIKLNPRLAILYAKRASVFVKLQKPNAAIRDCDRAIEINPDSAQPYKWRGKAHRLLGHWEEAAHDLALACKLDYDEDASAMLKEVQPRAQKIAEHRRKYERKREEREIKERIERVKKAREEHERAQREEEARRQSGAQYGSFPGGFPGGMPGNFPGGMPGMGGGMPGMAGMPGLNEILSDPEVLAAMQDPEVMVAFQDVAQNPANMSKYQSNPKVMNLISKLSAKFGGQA
UniProt P52630: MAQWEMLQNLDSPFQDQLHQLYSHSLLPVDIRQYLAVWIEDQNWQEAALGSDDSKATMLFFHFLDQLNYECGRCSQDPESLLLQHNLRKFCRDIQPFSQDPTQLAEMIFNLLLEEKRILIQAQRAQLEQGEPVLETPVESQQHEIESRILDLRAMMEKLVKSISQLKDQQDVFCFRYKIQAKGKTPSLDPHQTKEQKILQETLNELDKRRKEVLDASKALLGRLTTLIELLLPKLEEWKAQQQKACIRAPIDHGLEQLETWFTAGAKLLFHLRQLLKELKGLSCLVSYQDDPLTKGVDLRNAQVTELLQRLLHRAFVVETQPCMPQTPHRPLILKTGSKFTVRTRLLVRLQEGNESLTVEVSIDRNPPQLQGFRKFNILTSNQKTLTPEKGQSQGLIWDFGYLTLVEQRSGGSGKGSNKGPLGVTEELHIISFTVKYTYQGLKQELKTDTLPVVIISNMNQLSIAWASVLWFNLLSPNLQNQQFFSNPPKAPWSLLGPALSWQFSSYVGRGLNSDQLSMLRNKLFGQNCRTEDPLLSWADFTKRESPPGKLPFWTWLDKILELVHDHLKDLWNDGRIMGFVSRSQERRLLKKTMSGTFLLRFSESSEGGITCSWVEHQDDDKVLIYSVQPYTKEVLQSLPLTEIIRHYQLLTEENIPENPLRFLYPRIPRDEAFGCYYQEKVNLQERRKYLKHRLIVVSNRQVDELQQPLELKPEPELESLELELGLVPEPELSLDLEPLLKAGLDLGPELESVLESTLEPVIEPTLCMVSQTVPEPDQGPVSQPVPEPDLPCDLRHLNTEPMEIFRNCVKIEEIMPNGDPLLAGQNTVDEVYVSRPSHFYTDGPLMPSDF
UniProt Q9UNE7: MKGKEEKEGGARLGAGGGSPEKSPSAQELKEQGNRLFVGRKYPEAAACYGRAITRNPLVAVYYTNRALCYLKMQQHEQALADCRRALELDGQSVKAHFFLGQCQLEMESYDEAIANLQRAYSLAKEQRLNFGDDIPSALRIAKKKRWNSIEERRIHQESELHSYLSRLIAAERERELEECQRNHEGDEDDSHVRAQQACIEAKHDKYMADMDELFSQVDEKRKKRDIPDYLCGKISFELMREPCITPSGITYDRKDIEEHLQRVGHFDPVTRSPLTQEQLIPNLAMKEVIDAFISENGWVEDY

Compound: Cc1cc(ccc1-c1ccccc1)C(=O)N1CCCN(CC1)C(=O)CCl [compound 10]
Test: probe-labelled cysteine peptide fold change vs DMSO (competition) (log2 fold change); higher = less target engagement (more negative = stronger competition)
Details: THP-1, incubation time: 4 h
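Further: competitive profiling in live THP-1 cells: cysteine peptides tagged with an iodoacetamide desthiobiotin (IA-DTB) probe, intensity after compound treatment relative to DMSO-treated cells.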

| Target | probe-labelled cysteine peptide fold change (10 µM) | probe-labelled cysteine peptide fold change (50 µM) |
| --- | --- | --- |
| SSB_P05455_245_FSGDLDDQTCREDLHILFSNHGEIK (UniProt P05455) | 0.0581 | -0.267 |
| STARD4_Q96DR4_75_AQGVIDDLVYSIIDHIRPGPCR (UniProt Q96DR4) | 0.151 | 0.545 |
| SUGT1_Q9Y2Z0_154_CQEAQNGSESEVWTHQSK (UniProt Q9Y2Z0) | 0.159 | -0.0351 |
| STXBP3_O00186_90_SVDCFLHDFASK (UniProt O00186) | -0.112 | -0.222 |
| SYMPK_Q92797_578_AVACSGAAQVR (UniProt Q92797) | -0.258 | -0.379 |
| STAG2_Q8N3U4_176_SSFCEFIGVLVR (UniProt Q8N3U4) | 0.175 | 0.43 |
| SUPV3L1_Q8IYB8_418_FNDPNDPCK (UniProt Q8IYB8) | -0.0272 | 0.218 |
| SSH3_Q8TE77_634_TQAFQEQEQGQGQGQGEPCISSTPR (UniProt Q8TE77) | -0.125 | -0.345 |
| SRSF7_Q16629_73_VICGSR (UniProt Q16629) | -0.158 | -0.51 |
| STX17_P56962_290_LTSSCPDLPSQTDKK (UniProt P56962) | -0.37 | -0.613 |
| ST13_P50502_209_LLGHWEEAAHDLALACKLDYDEDASAMLK (UniProt P50502) | -0.319 | -1.1 |
| STAT2_P52630_74_CSQDPESLLLQHNLR (UniProt P52630) | 0.118 | -0.188 |
| STUB1_Q9UNE7_48_KYPEAAACYGR (UniProt Q9UNE7) | 0.0355 | -0.145 |
| STXBP3_O00186_26_ATVFDDCK (UniProt O00186) | -0.195 | 0.039 |

Another view of some results above:
Target	probe-labelled cysteine peptide fold change (10 µM)	probe-labelled cysteine peptide fold change (50 µM)
STAT2_P52630_74_CSQDPESLLLQHNLR (UniProt P52630)	0.118	-0.188
STUB1_Q9UNE7_48_KYPEAAACYGR (UniProt Q9UNE7)	0.0355	-0.145
